Assay results as given in patent US8197775B2, “Detection article having fluid control film” (priority 1999, dated 2012).
At least one compound was matched to its structure with a doubt left.

Tested on: Escherichia coli ATCC 51813
Assay: Minimum inhibitory concentration (MIC) test using microchannels, MUG fluorescence read-out
Type: cell-based
Settings: 16 hours at 37° C.
Experimental: Microchannel polyethylene films were heat embossed on a hydraulic press according to the procedure outlined in U.S. patent application Ser. No. 08/905,481. […] The channels were covered with ScotchPak #33 (3M Company) using an iron heated to 149 degrees C. (300 degrees F.), forming a series of capillary channels.
A dilution series of tetracycline was prepared in VRB media (7.0 g Bacto peptone, 3.0 g yeast extract, 1.5 g bile salts per liter) containing the fluorescent indicator methylumbelliferyl glucuronide (MUG, 0.5 mg/ml). The following tetracycline concentrations were prepared: 40, 4, 0.4, 0.04, and 0.004 micrograms/ml. Approximately 1 ml of each solution was placed in a test tube. A suspension of Escherichia coli ATCC 51813 (100 microliters of approximately 10^7 bacteria/ml) was added to each tube. A syringe was used to transfer each solution into adjacent microchannels (1.6 microliters/channel). Both the control tubes and the microchannel device were incubated for 16 hours at 37° C. After incubation the samples were observed under ultraviolet radiation.

SMILES: CN(C)[C@@H]1C(O)=C(C(N)=O)C(=O)[C@@]2(O)C(O)=C3C(=O)c4c(O)cccc4[C@@](C)(O)[C@H]3C[C@@H]12 [tetracycline]
- fluorescence under ultraviolet radiation after incubation (0.4, 0.04, 0.004 micrograms/ml tetracycline, control tubes and microchannels): Fluorescence was observed
- fluorescence under ultraviolet radiation after incubation (40 and 4 micrograms/ml tetracycline): No fluorescence was observed
